Assay results reported in PubChem BioAssay AID624291 (National Center for Advancing Translational Sciences (NCATS), 2012).
Among all 350,000 compounds or so, about 220 (0.063%) were called active. The shares of active, inactive and inconclusive entries below differ from those in the screen. Calls come from the whole dose curve; as a rule, active = well fitted activation curve with a large enough effect; inconclusive = small, poorly fitted or top-dose-only effect; inactive = no such curve, though single readings can be large or run the other way. Potencies of inconclusive entries are doubtful fits and often do not repeat.

assay: qHTS for Activators of Integrin-Mediated Alleviation for Muscular Dystrophy; conditions: alpha7betagal myoblasts, beta-gal FDG fluorescence, 48 h; activation: at 38.3 µM (top of the series); note: nearly all actives have a fitted effect of over 60% in size;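 for activation: 100% = response of the positive control SU9516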
How it was run: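 alpha7betagal+/- myoblasts (passage 13, 250/well) treated 48 h at 37C with compounds at 1:260 dilution of DMSO stock. Lysed, then beta-galactosidase activity read as FDG fluorescence (ex 480/em 540) after 30 min, with pre-read for autofluorescence.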
Potency is the fitted concentration of half-maximal effect.

Row | Structure (SMILES) | Potency | activation
1 | CC(=O)NC1(c2nnnn2CCOC(=O)Nc2ccc(Cl)cc2)CCCC1 | inconclusive: 2.51 µM [activator, partial curve, poor fit] | 
2 | CCOc1cc(/C=N/N=C2/NC(=O)C(CC(=O)O)S2)ccc1OCc1ccc(Cl)cc1 (centres undefined) | inactive | 
3 | O=C(NCc1ccc2c(c1)OCO2)C1CCCCC1 | inconclusive: 0.355 µM [activator, full curve, poor fit] | 
4 | O=[N+]([O-])c1ccc(OCCn2cnc3ccccc32)cc1 | inconclusive: 5.01 µM [activator, partial curve, poor fit] | 
5 | CCNc1nc(NC(C)C)nc(NS(=O)(=O)c2ccc(C)cc2)n1 | inconclusive: 3.16 µM [activator, partial curve, poor fit] | 
6 | COc1cc(C(C)=O)ccc1Oc1cnccn1 | inconclusive: 28.2 µM [activator, single point] | 
7 | COC(=O)c1ccccc1NC(=O)CC(=O)Nc1ccccc1C(=O)OC | inconclusive: 5.01 µM [activator, single point] | 
8 | O=C(NC(NC(=S)Nc1ccccc1Cl)C(Cl)(Cl)Cl)c1cccc(Cl)c1 (centres undefined) | inactive | 
9 | CCOC(=O)C1CCN(C(=O)c2cc3cc(Cl)ccc3[nH]2)CC1 | inconclusive: 5.01 µM [activator, single point] | 
10 | CCOc1ccc(S(=O)(=O)Nc2cc(Cl)ccc2O)cc1 | inactive | 
11 | COc1ccc(C2CC(=O)C(C=NCCN3CCN(C(C)=O)CC3)=C(O)C2)cc1 (centres undefined) | inconclusive: 28.2 µM [activator, single point] | 
12 | COc1cc(O)c(/C=N/NC(=O)c2ccncc2)c(OC)c1[N+](=O)[O-] | inconclusive: 5.01 µM [activator, single point] | 
13 | O=C(Nc1nc(-c2ccco2)c(-c2ccco2)s1)C1CCC1 | inactive | 
14 | O=C(Nc1ccc(N2CCN(C(=O)c3ccccc3F)CC2)cc1)c1cncc(Br)c1 | active: 12.6 µM | 
15 | CC(NS(=O)(=O)c1ccc2c(c1)C(=O)c1cc(S(=O)(=O)NC(C)C(=O)O)ccc1-2)C(=O)O (centres undefined) | inconclusive: 5.01 µM [activator, single point] | 
16 | COC(=O)c1sccc1NC(=O)CSCCc1ccncc1 | inconclusive: 3.55 µM [activator, single point] | 
17 | Cc1ccc(-c2cc(C(=O)NCCCN3CCOCC3)c3ccccc3n2)cc1C | inactive | 
18 | c1ccc(Cn2nnnc2C(c2ccccc2)N2CCN(c3nc4ccccc4s3)CC2)cc1 (centres undefined) | inactive | 
19 | Cc1cc(C)n(CCCC(=O)O)n1 | inconclusive: 12.6 µM [activator, partial curve, poor fit] | 
20 | CC1CCN(c2ccc3nnc(CCC(=O)Nc4cccc(F)c4)n3n2)CC1 | inconclusive: 4.47 µM [activator, single point] | 
21 | O=C(COc1cccc2ccccc12)Nc1ccc(Cl)cc1C(=O)O | inconclusive: 5.01 µM [activator, full curve, poor fit] | 
22 | CCOc1ccc(-c2nonc2NC(=O)c2ccco2)cc1OCC | inconclusive: 1.78 µM [activator, partial curve, poor fit] | 

4 entries from above, as tab-separated lines.
Row	Structure (SMILES)	Potency	activation
13	O=C(Nc1nc(-c2ccco2)c(-c2ccco2)s1)C1CCC1	inactive	
14	O=C(Nc1ccc(N2CCN(C(=O)c3ccccc3F)CC2)cc1)c1cncc(Br)c1	active: 12.6 µM	
15	CC(NS(=O)(=O)c1ccc2c(c1)C(=O)c1cc(S(=O)(=O)NC(C)C(=O)O)ccc1-2)C(=O)O (centres undefined)	inconclusive: 5.01 µM [activator, single point]	
16	COC(=O)c1sccc1NC(=O)CSCCc1ccncc1	inconclusive: 3.55 µM [activator, single point]	

The results go on.

Row | Structure (SMILES) | Potency | activation
23 | CC(C)CNC(=S)NC1CC2CCCC(C1)N2Cc1cccs1 (centres undefined) | inactive | 
24 | O=C1CC(c2ccccc2)=Nc2ccccc2N1 | inconclusive: 5.01 µM [activator, single point] | 
25 | COc1cccc(N2CCN(Cc3nnnn3C3CCCCC3)CC2)c1 | inconclusive: 22.4 µM [activator, single point] | 
26 | Cc1cc(C)c(C)c(S(=O)(=O)N2CCN(c3ncnc4sc(C)c(C)c34)CC2)c1C | inconclusive: 5.01 µM [activator, single point] | 
27 | CCn1cc(C(=O)N(CCC(C)C)c2c(N)n(Cc3ccccc3)c(=O)[nH]c2=O)c(=O)c2ccc(C)nc21 | inconclusive: 2.24 µM [activator, partial curve, poor fit] | 
28 | COc1cc2cccc(OC)c(=O)c2c(O)c1OC | inactive | 
29 | O=C(COc1ccc(-n2cnnn2)cc1)Nc1ccccc1Cl | inconclusive: 25.1 µM [activator, partial curve, poor fit] | 
30 | CCC(C)(C)c1ccc(OCCCC[n+]2ccccc2)c(C(C)(C)CC)c1 |  | inconclusive: -61.1% [activator]
31 | COc1ccc(S(=O)(=O)N2CCOCC2)cc1NC(=O)CSc1cccc[n+]1[O-] | inconclusive: 1 µM [activator, partial curve, poor fit] | 
32 | Cc1ccc(-c2noc(C3CCCN(C(=O)c4cccc([N+](=O)[O-])c4)C3)n2)o1 (centres undefined) | inconclusive: 8.91 µM [activator, partial curve] | 
33 | Cc1cccn2c(=O)c3cc(C(=O)NC4CCCCC4)sc3nc12 | inconclusive: 35.5 µM [activator, partial curve, poor fit] | 
34 | CC(=O)c1cccc(NC(=O)N2CCC(NC(=O)C3CCCCC3)CC2)c1 | inactive | 
35 | CSCCC(NC(=O)c1ccco1)C(=O)NC1CCCCCC1 (centres undefined) | inconclusive: 10 µM [activator, partial curve, poor fit] | 
36 | COCCCNC(=O)CSc1nc2cc(C(=O)NCCOC)ccc2c(=O)n1Cc1ccc2c(c1)OCO2 | inactive | 
37 | Cc1ccc2c(c1)[C@@H]1CN(C)CC[C@@H]1N2S(=O)(=O)c1ccc(F)cc1 | inactive | 
38 | CC1=C(C)CC(C(=O)NCc2ccccn2)C(C(=O)O)C1 (centres undefined) | inconclusive: 5.01 µM [activator, single point] | 
39 | CCc1nnc(NC(=O)c2ccc(-c3ccc(C(C)=O)cc3)o2)s1 |  | inconclusive: 67.8% [activator]
40 | COc1cc(NC(=S)NNC(=O)CC(C)C)c(OC)cc1Cl | inconclusive: 12.6 µM [activator, single point] | 
41 | Cc1ccccc1OC(=O)c1cccc(S(=O)(=O)N2CCN(C)CC2)c1 | inactive | 
42 | CCOc1ccc(S(=O)(=O)N2CCC(C(=O)NCc3ccccc3CN3CCCC3)CC2)cc1 |  | inconclusive: -37.4% [activator]
43 | CN1CCN(C2=C(Cl)C(=O)N(c3ccc(Cl)c(Cl)c3)C2=O)CC1 | inactive | 
44 | COC(=O)c1ccc(CSc2nc3ccc(S(N)(=O)=O)cc3[nH]2)cc1 | inconclusive: 28.2 µM [activator, single point] | 
